For at least one compound, name, drawing or mass did not settle the structure.
Columns and labels:
Assay type in all cases: cell-based
[1] = system: transformed Rat1A cells expressing the FYN Tyr531His mutant protein; assay: Relative cell growth of transformed Rat1A cells expressing FYN Tyr531His under dasatinib; conditions: transformed Rat1A cells expressing constitutively active FYN Tyr531His (FIG. 4J)
[2] = system: transformed Rat1A cells expressing FYN Thr342Ile Tyr531His; assay: Relative cell growth of transformed Rat1A cells expressing dasatinib-resistant FYN Thr342Ile Tyr531His under dasatinib; conditions: transformed Rat1A cells expressing drug-resistant gatekeeper mutant FYN Thr342Ile Tyr531His (FIG. 4J)
FYN mutant proteins = assay: Dasatinib block of FYN signaling (summary statements of Example 5); conditions: summary statement

Cc1nc(Nc2ncc(C(=O)Nc3c(C)cccc3Cl)s2)cc(N2CCN(CCO)CC2)n1 [dasatinib]
effect on cell growth [1]: impaired the growth | effect on cell growth [2]: but not that of cells expressing a drug-resistant gatekeeper mutant form of this kinase | block of deregulated kinase signaling from FYN mutant proteins (FYN mutant proteins): effectively blocked | inhibition of FYN phosphorylation (FYN mutant proteins; FYN form not specified at this place): dose dependent inhibition of FYN phosphorylation

Reference: patent US9574241B2, “Recurrent mutations in epigenetic regulators, RHOA and FYN kinase in peripheral T-cell lymphomas” (THE TRUSTEES OF COLUMBIA UNIVERSITY IN THE CITY OF NEW YORK, priority 2013, dated 2017)
